Ends that are not written are not given here.
Assay: general procedure: Fmoc solid-phase peptide synthesis; Pre-loaded Fmoc-Xaa-Wang-resins; H-Pro-2-Cl-Trt-resin for C-terminal Pro peptides (Novabiochem); DIC/HOBt; HBTU/HOBt in difficult situations
Conditions: whole synthesis

## EFLIVKSSTKSIPPQSEFLIVKS
  final LC-MS purity: over 99% pure
